From PubChem BioAssay AID322 (DTP/NCI, 2004)
The list is a part of this screen's results and no random one: it gathers tests that were run many times, whatever their T/C, doses with no T/C, and many T/C values between a quarter and a half above the control. Other doses and runs of a compound stand elsewhere. T/C: endpoint of the treated group in % of that of the vehicle group. Some entries give survivors of the animals treated and no T/C: the source holds a T/C of zero for them, seemingly a mark for toxic or unscored doses. Some survivor counts are full or nearly so, which does not show that the dose was tolerated: survival well below the control is almost never listed, so the zero probably covers shortened survival too. Survivors were counted at the toxicity check, usually on the fifth day, unless a day is given; later deaths do not show. Schedule codes are those of the source, taken here to give the interval after Q, in days (D) or hours (H), and the number of doses after X. Where survival is the endpoint, the PubChem record calls one and a half times the control and up active, and a quarter to a half above the control has no call in these data; cut-offs in other NCI protocols can differ. Marks such as (2×) say how often a value occurs here. Some T/C values are followed by the survivors on the day toxicity was checked, most often the fifth; without a count, all were alive then. Some doses were run more than once; their values stand side by side, smallest first.

Tested on: CD2F1 mice, P388/ADR leukemia ip, median survival T/C
Assay: NCI In Vivo Anticancer Drug Screen. Data for tumor model P388 Leukemia resistant to Adriamycin; NSC 123127, Developed at Scr 08 (intraperitoneal) in CD2F1 (CDF1) mice
Conditions: T/C endpoint: median survival time, higher T/C = longer survival
Protocol: The antitumor activity of compounds was measured in mice bearing transplantable tumors. Survival or tumor size were measured and the results are expressed as the measurement made in the treated group (T) divided by the measurement made in the vehicle treated control group (C). The tumor model used in this assay is P388 Leukemia resistant to Adriamycin; NSC 123127, Developed at Scr 08 (intraperitoneal) in CD2F1 (CDF1) mice

## O=c1[nH]cc(F)c(=O)[nH]1
dose: 15.0 mg/kg/injection, schedule: Q01DX005 (ip), vehicle: saline, evaluated on day 23
  T/C: 136 % of control
dose: 15.0 mg/kg/injection, schedule: Q01DX005 (ip), vehicle: saline, evaluated on day 30
  T/C: 127 [9 of 10 alive], 130, 136, 141, 145 (3×), 146, 150, 151, 153, 154, 155, 157, 158, 159 (3×), 161, 168, 186, 223 % of control
dose: 15.0 mg/kg/injection, schedule: Q01DX005 (ip), vehicle: saline, evaluated on day 45
  T/C: 150 % of control
dose: 15.0 mg/kg/injection, schedule: Q01DX005 (ip), vehicle: saline, evaluated on day 56
  T/C: 150 % of control
dose: 15.0 mg/kg/injection, schedule: Q01DX005 (ip), vehicle: saline, evaluated on day 60
  T/C: 130, 134, 140 [9 of 10 alive], 147, 150, 165 % of control
dose: 20.0 mg/kg/injection, schedule: Q01DX005 (ip), vehicle: saline, evaluated on day 30
  T/C: 155, 157, 162 % of control
dose: 20.0 mg/kg/injection, schedule: Q01DX005 (ip), vehicle: saline, evaluated on day 45
  T/C: 152, 154, 161 % of control
dose: 25.0 mg/kg/injection, schedule: Q01DX005 (ip), vehicle: saline, evaluated on day 23
  T/C: 122 % of control
dose: 25.0 mg/kg/injection, schedule: Q01DX005 (ip), vehicle: saline, evaluated on day 30
  T/C: 139, 143 (2×), 144, 147, 148, 149, 150, 151 (2×), 154, 156, 157, 158 [9 of 10 alive], 161 (5×), 167, 168 (2×), 186 % of control
dose: 25.0 mg/kg/injection, schedule: Q01DX005 (ip), vehicle: saline, evaluated on day 45
  T/C: 154, 164, 165, 166 % of control
dose: 25.0 mg/kg/injection, schedule: Q01DX005 (ip), vehicle: saline, evaluated on day 56
  T/C: 166 % of control
dose: 25.0 mg/kg/injection, schedule: Q01DX005 (ip), vehicle: saline, evaluated on day 60
  T/C: 139, 142, 144, 153 (2×), 173 % of control

## COc1ccc(C(C)c2cc3c(cc2OC)OCO3)cc1 (stereo unspecified)
dose: 100.0 mg/kg/injection, schedule: Q01DX005 (ip), vehicle: saline with Tween-80
  T/C: 137 % of control
dose: 200.0 mg/kg/injection, schedule: Q01DX005 (ip), vehicle: saline with Tween-80
  survivor count: 10 of 10

## CN(C)[C@@H]1C(=O)C(C(=O)NCN2CCN(C(=N)N=C(N)N)CC2)=C(O)[C@@]2(O)C(=O)C3=C(O)c4c(O)cccc4[C@@](C)(O)[C@H]3C[C@@H]12
dose: 1.8 mg/kg/injection, schedule: Q01DX005 (ip), vehicle: saline
  T/C: 126 and 135 % of control
dose: 3.0 mg/kg/injection, schedule: Q01DX005 (ip), vehicle: saline
  T/C: 129 % of control (2×)
dose: 5.0 mg/kg/injection, schedule: Q01DX005 (ip), vehicle: saline
  T/C: 126 and 137 % of control
dose: 8.32 mg/kg/injection, schedule: Q01DX005 (ip), vehicle: saline
  survivor count: 9 of 10
dose: 8.33 mg/kg/injection, schedule: Q01DX005 (ip), vehicle: saline
  T/C: 134 % of control [9 of 10 alive]
dose: 8.33 mg/kg/injection, schedule: Q01DX005 (ip), vehicle: suspension in saline
  survivor count: 6 of 10
dose: 10.0 mg/kg/injection, schedule: Q01DX005 (ip), vehicle: saline
  survivor count: 7 of 10
dose: 13.88 mg/kg/injection, schedule: Q01DX005 (ip), vehicle: saline
  survivor count: 1 of 10
dose: 13.89 mg/kg/injection, schedule: Q01DX005 (ip), vehicle: saline
  survivor count: 9 of 10
dose: 13.89 mg/kg/injection, schedule: Q01DX005 (ip), vehicle: suspension in saline
  survivor count: 1 of 10

## O=[N+]([O-])c1ccc(N(CCO)CCO)c2c1no[n+]2[O-]
dose: 12.5 mg/kg/injection, schedule: Q01DX005 (ip), vehicle: saline with Tween-80
  T/C: 136 % of control
dose: 25.0 mg/kg/injection, schedule: Q01DX005 (ip), vehicle: saline with Tween-80
  T/C: 135 % of control
dose: 50.0 mg/kg/injection, schedule: Q01DX005 (ip), vehicle: saline with Tween-80
  T/C: 128 % of control

## CN(C)/N=N/c1nc[nH]c1C(N)=O
dose: 25.0 mg/kg/injection, schedule: Q01DX009 (ip), vehicle: distilled water + Tween-80
  T/C: 131 % of control
dose: 50.0 mg/kg/injection, schedule: Q01DX009 (ip), vehicle: distilled water + Tween-80
  T/C: 131 % of control
dose: 100.0 mg/kg/injection, schedule: Q01DX009 (ip), vehicle: distilled water + Tween-80
  T/C: 131 % of control

## [CH3][Sn]([CH3])([Cl])[c]1cc[c]([Sn]([CH3])([CH3])[Cl])cc1
dose: 3.12 mg/kg/injection, schedule: Q01DX005 (ip), vehicle: suspension in saline
  survivor count: 0 of 10

## O=C(O)CCCc1ccc(N(CCCl)CCCl)cc1
dose: 2.5 mg/kg/injection, schedule: Q01DX005 (ip), vehicle: saline with Tween-80
  T/C: 137 % of control
dose: 5.0 mg/kg/injection, schedule: Q01DX005 (ip), vehicle: saline with Tween-80
  T/C: 141 % of control
dose: 20.0 mg/kg/injection, schedule: Q01DX005 (ip), vehicle: saline with Tween-80
  survivor count: 5 of 10

## CCOc1ccc(C(C)c2cc3c(cc2OC)OCO3)cc1 (stereo unspecified)
dose: 72.0 mg/kg/injection, schedule: Q01DX005 (ip), vehicle: distilled water + Tween-80
  T/C: 135 % of control
dose: 120.0 mg/kg/injection, schedule: Q01DX005 (ip), vehicle: distilled water + Tween-80
  T/C: 148 % of control
dose: 200.0 mg/kg/injection, schedule: Q01DX005 (ip), vehicle: distilled water + Tween-80
  T/C: 139 % of control
dose: 400.0 mg/kg/injection, schedule: Q01DX005 (ip), vehicle: distilled water + Tween-80
  survivor count: 10 of 10
dose: 555.55 mg/kg/injection, schedule: Q01DX005 (ip), vehicle: distilled water + Tween-80
  survivor count: 9 of 10
dose: 555.56 mg/kg/injection, schedule: Q01DX005 (ip), vehicle: distilled water + Tween-80
  survivor count: 9 of 10

## COc1ccc2[nH]c3ccc4cc[n+](CCN5CCC(C6CCN(CC[n+]7ccc8ccc9[nH]c%10ccc(OC)cc%10c9c8c7)CC6)CC5)cc4c3c2c1
dose: 4.0 mg/kg/injection, schedule: Q01DX005 (ip), vehicle: water
  T/C: 136 % of control
dose: 8.0 mg/kg/injection, schedule: Q01DX005 (ip), vehicle: water
  T/C: 135 % of control
dose: 16.0 mg/kg/injection, schedule: Q01DX005 (ip), vehicle: water
  T/C: 136 % of control
dose: 32.0 mg/kg/injection, schedule: Q01DX005 (ip), vehicle: water
  T/C: 135 % of control
dose: 64.0 mg/kg/injection, schedule: Q01DX005 (ip), vehicle: water
  survivor count: 0 of 10

## O=C1CN(CCN2CC(=O)N(CN3CCOCC3)C(=O)C2)CC(=O)N1CN1CCOCC1
dose: 200.0 mg/kg/injection, schedule: Q01DX005 (ip), vehicle: water
  survivor count: 6 of 10

## [N-]=[N+]=CC(=O)CCC(NC(=O)OCc1ccccc1)C(=O)OCc1ccccc1 (stereo unspecified)
dose: 50.0 mg/kg/injection, schedule: Q01DX005 (ip), vehicle: Klucel (hydroxypropylcellulose) (HPC)
  T/C: 136 % of control
dose: 100.0 mg/kg/injection, schedule: Q01DX005 (ip), vehicle: Klucel (hydroxypropylcellulose) (HPC)
  T/C: 127 % of control
dose: 167.0 mg/kg/injection, schedule: Q01DX005 (ip), vehicle: Klucel (hydroxypropylcellulose) (HPC)
  T/C: 138 % of control

## Nc1ccc2c(c1)CN1C(=O)c3ccccc3C1=N2
dose: 112.0 mg/kg/injection, schedule: Q01DX009 (ip), vehicle: saline with Tween-80, evaluated on day 30
  T/C: 131 % of control
dose: 112.0 mg/kg/injection, schedule: Q01DX009 (ip), vehicle: saline with Tween-80, evaluated on day 60
  T/C: 135 % of control
